According to patent publication US7399847 (GENERAL HOSPITAL, dated 2008):
Results are given in words; binding and its absence hold for the method and conditions named. Some results given as binding are weak or reduced against the parent protein; the word gives no strength.

Target: T1, E-selectin Ig chimera (human) (UniProt P16581)
T1 sequence (looked up): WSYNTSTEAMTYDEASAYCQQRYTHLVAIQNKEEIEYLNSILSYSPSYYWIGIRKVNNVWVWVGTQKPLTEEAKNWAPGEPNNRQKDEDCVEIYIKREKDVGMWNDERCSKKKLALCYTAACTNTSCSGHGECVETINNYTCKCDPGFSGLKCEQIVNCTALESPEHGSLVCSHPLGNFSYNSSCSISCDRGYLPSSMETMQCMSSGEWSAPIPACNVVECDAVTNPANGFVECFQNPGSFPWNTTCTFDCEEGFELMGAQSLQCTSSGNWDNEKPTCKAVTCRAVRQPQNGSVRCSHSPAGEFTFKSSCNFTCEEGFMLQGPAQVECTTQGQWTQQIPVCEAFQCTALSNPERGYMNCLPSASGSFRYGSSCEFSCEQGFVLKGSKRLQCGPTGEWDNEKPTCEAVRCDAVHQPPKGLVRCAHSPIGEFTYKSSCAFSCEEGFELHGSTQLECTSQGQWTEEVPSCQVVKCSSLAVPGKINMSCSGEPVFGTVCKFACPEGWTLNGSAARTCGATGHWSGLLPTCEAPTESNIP
Experiment: adhesion of 51Cr-labelled transfected COS cells to immobilized E-selectin Ig

B1: PSGL-1 residues 38-57 with tyrosines converted to phenylalanine, on the truncated PSGL-1 lacking the apical domain (ligand, not shown: small tags and cut ends)
chain: RDRRQATEFEFLDFDFLPETAMEIQTTQPAATEAQTTQPVPTEAQTTPLAATEAQTTRLTATEAQTTPLAATEAQTTPPAATEAQTTQPTGLEAQTTAPAAMEAQTTAPAAMEAQTTPPAAMEAQTTQTTAMEAQTTAPEATEAQTTQPTATEAQTTPLAAMEALSTEPSATEALSMEPTTKRGLFIPFSVSSVTHKGIPMAASNLSVNYPVGAPDHISVKQCLLAILILALVATIFFVCTVVLAVRLSRKGHMYPVRNYSPTEMVCISSLLPDGGEGPSATANGGLSKAKSPGLTPEPREDREGDDLTLHSFLP
- binding: binds
